Record: PubChem BioAssay AID504786 (Drosophila RNAi Screening Center, 2011)

Test: 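Fly genes required for HIF-dependent transcription when hypoxia is mimicked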 (primary screen)
Cells: Drosophila S2 cells with a stable HIF luciferase reporter
Reagent: long dsRNA against Drosophila genes, about 0.2 µg dsRNA per well of a 384-well plate
Duration: three days of knock-down, then 20 h of DFO before reading
Conditions: desferrioxamine (DFO) at 100 µM, an iron chelator that mimics hypoxia, for 20 h
Read-out: 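Firefly luciferase driven by the mouse ldh-a hypoxia-response element, measured after 20 h of 100 µM DFO; z-scores per plate, higher means more signal lost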
Scale: z-score: higher = stronger loss of HIF reporter signal
In all, the deposit lists about 21,000 reagents; below is an unselected part of those that have a named target and a result. 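Primary screen; positive scores mean lost reporter signal, so the sign may be inverted from the usual convention.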 A plus sign joins genes that one reagent is predicted to hit. Further read-outs or replicates are left out here.

z-score, replicate 1, by gene and reagent
Rlip: DRSC16828 -0.5
CG17782: DRSC15267 -0.4
Cp7Fb: DRSC18034 -0.2
CG14273: DRSC02377 0
aos: DRSC11323 -0.4
CG4459: DRSC15582 -1.1
E(spl)mbeta-HLH: DRSC16697 -0.3
CG7173: DRSC11812 0.2
pygo: DRSC14322 1.6
dj: DRSC12625 -0.1
CG14434: DRSC17927 -0.3
CG43737: DRSC19609 -0.1
CG15473: DRSC18056 -0.3
IntS10: DRSC08173 -0.3
Lrt: DRSC06045 -0.3
Tpc1: DRSC15614 -0.4; DRSC16074 -0.4
Ctu2: DRSC02024 -0.3
Nrd1: DRSC19830 -0.3
CheB53a: DRSC06625 -0.4
CG7888: DRSC10926 -0.2
Chpf: DRSC19491 -0.2; DRSC19893 -0.2
Pak3: DRSC15017 -0.3
CG1603: DRSC06602 -0.2
Dab: DRSC11140 -0.4
Tsp42Ei: DRSC06189 -0.4
ZnT35C: DRSC01959 -0.3
CG15084: DRSC06515 -0.1
CG31751: DRSC02464 -0.1; DRSC02465 -0.2
St1: DRSC04504 -0.3
Or33b: DRSC03387 0
baf: DRSC03051 -0.2

Laid out differently: 3 of the entries above
Cp7Fb [DRSC18034] — z-score, replicate 1 = -0.2
CG14273 [DRSC02377] — z-score, replicate 1 = 0
aos [DRSC11323] — z-score, replicate 1 = -0.4

More entries:
z-score, replicate 1, by gene and reagent
net: DRSC00309 -0.1
CG7544: DRSC07023 -0.3
Rab2: DRSC05017 0.1
Uba1: DRSC07567 -0.4
CG33282: DRSC00422 -0.2
Drp1: DRSC00574 -0.2
Or47b: DRSC07492 -0.2
Echs1: DRSC06999 -0.4
Mtch: DRSC08679 -0.2
Irbp: DRSC17007 -0.3
daed: DRSC00299 -0.3
EloC: DRSC07423 1.7
CG32829: DRSC00961 0.3
by: DRSC16482 -0.4
dock: DRSC00812 -0.3
can: DRSC10664 0.2
Coa8: DRSC17959 -0.2
RN-tre: DRSC07521 -0.4
Mst27D: DRSC00967 1.7
CG7333: DRSC16229 -1.3
Alms1b + Alms1a: DRSC18559 -0.1
CG2736: DRSC04314 0.1
